PubChem BioAssay AID743121 | NCATS – 2013

Assay: 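Partners whose loss is lethal together with topoisomerase I blockade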 (primary screen)
Cell system: MDA-MB-231 cells, a human breast cancer line
Reagent: single siRNA against human genes, 20 nM siRNA (0.8 pmol per well)
Timing: 120 h (drug added 48 h after transfection, read 72 h later)
Treatment: camptothecin 20 nM (about EC30) for 72 h; vehicle 0.1% DMSO in parallel plates
Read-out: 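CellTiter-Glo ATP signal, scaled to control siRNA as percent viability; sensitisation given as log2 of untreated divided by camptothecin-treated viability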
Reading the numbers: log2 vehicle/camptothecin viability: higher = stronger sensitisation to camptothecin; viability with camptothecin: higher = more viable cells
Units: viability with camptothecin in % of control
Call rule: 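Active genes have an RSA gene-level p-value below 0.001, computed from the ratios of their separate siRNAs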
In all, the deposit lists about 26,000 reagents; below is a random part of them. 167 of all reagents (0.63%) were called active. 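Calls are per gene from RSA p-values that are not deposited; an individual active-marked siRNA can sensitise only weakly.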 Reagents against one gene are numbered here. Not all columns of the deposit are shown.

With OR1F1 #1, how do the results read?
log2 vehicle/camptothecin viability: -0.177; viability with camptothecin: 72.7; activity call: inactive

How did the screen score OR1F1 #2?
log2 vehicle/camptothecin viability: -0.131; viability with camptothecin: 53.1; activity call: inactive

Which result is listed for OR1F1 #3?
log2 vehicle/camptothecin viability: 0.135; viability with camptothecin: 49.8; activity call: inactive

For OR1F1 #4, how do the results read?
log2 vehicle/camptothecin viability: 0.48; viability with camptothecin: 34; activity call: inactive

With CALY #1, what was measured?
log2 vehicle/camptothecin viability: -0.509; viability with camptothecin: 96.9; activity call: inactive

Which result is listed for CALY #2?
log2 vehicle/camptothecin viability: -0.152; viability with camptothecin: 69.3; activity call: inactive

With CALY #3, how do the results read?
log2 vehicle/camptothecin viability: -0.344; viability with camptothecin: 54.5; activity call: inactive

What is on record for CAT #1?
log2 vehicle/camptothecin viability: 0.0704; viability with camptothecin: 61.5; activity call: inactive

Which result is listed for CAT #2?
log2 vehicle/camptothecin viability: 0.107; viability with camptothecin: 34.2; activity call: inactive

For CAT #3, how do the results read?
log2 vehicle/camptothecin viability: 0.104; viability with camptothecin: 94.7; activity call: inactive

What did the screen give for CAT #4?
log2 vehicle/camptothecin viability: -0.205; viability with camptothecin: 75.8; activity call: inactive

Which result is listed for KCNK4 #1?
log2 vehicle/camptothecin viability: -0.666; viability with camptothecin: 87.2; activity call: inactive

With KCNK4 #2, how do the results read?
log2 vehicle/camptothecin viability: 1.19; viability with camptothecin: 25.9; activity call: inactive

What did the screen give for KCNK4 #3?
log2 vehicle/camptothecin viability: -0.654; viability with camptothecin: 46.6; activity call: inactive

What is on record for KCNK4 #4?
log2 vehicle/camptothecin viability: -0.0128; viability with camptothecin: 90.2; activity call: inactive

Individual results from the list.
KCNK4 #4, activity call → inactive
Result for CALY #2 in “viability with camptothecin”: 69.3
Under “log2 vehicle/camptothecin viability”, CAT #4 has -0.205
CALY #3, viability with camptothecin: 54.5
Value for KCNK4 #3 in “activity call”: inactive

The listing continues:
With XRCC3 #1, what was measured?
log2 vehicle/camptothecin viability: 0.98; viability with camptothecin: 42.7; activity call: inactive

With XRCC3 #2, what was measured?
log2 vehicle/camptothecin viability: 0.105; viability with camptothecin: 97.4; activity call: inactive

Which result is listed for XRCC3 #3?
log2 vehicle/camptothecin viability: -0.0355; viability with camptothecin: 48.4; activity call: inactive

With XRCC3 #4, what does the deposit list?
log2 vehicle/camptothecin viability: 0.116; viability with camptothecin: 35.9; activity call: inactive

With USP15 #1, what does the deposit list?
log2 vehicle/camptothecin viability: -0.432; viability with camptothecin: 44.2; activity call: inactive

For USP15 #2, what does the deposit list?
log2 vehicle/camptothecin viability: -0.145; viability with camptothecin: 114; activity call: inactive

What is on record for USP15 #3?
log2 vehicle/camptothecin viability: 0.285; viability with camptothecin: 63.2; activity call: inactive

With USP15 #4, what does the deposit list?
log2 vehicle/camptothecin viability: -0.0692; viability with camptothecin: 113; activity call: inactive

With ARHGEF10 #1, how do the results read?
log2 vehicle/camptothecin viability: 0.0434; viability with camptothecin: 80.1; activity call: inactive

What is on record for ARHGEF10 #2?
log2 vehicle/camptothecin viability: -0.0296; viability with camptothecin: 108; activity call: inactive

With ARHGEF10 #3, how do the results read?
log2 vehicle/camptothecin viability: -0.0584; viability with camptothecin: 89.3; activity call: inactive

How did the screen score ARHGEF10 #4?
log2 vehicle/camptothecin viability: -0.0273; viability with camptothecin: 111; activity call: inactive

What is on record for GPR153 #1?
log2 vehicle/camptothecin viability: -0.745; viability with camptothecin: 51.7; activity call: inactive

Which result is listed for GPR153 #2?
log2 vehicle/camptothecin viability: -0.246; viability with camptothecin: 78.7; activity call: inactive

What is on record for GPR153 #3?
log2 vehicle/camptothecin viability: 0.224; viability with camptothecin: 45.6; activity call: inactive

With GPR153 #4, how do the results read?
log2 vehicle/camptothecin viability: -0.202; viability with camptothecin: 108; activity call: inactive

What is on record for RRAS2 #1?
log2 vehicle/camptothecin viability: -0.261; viability with camptothecin: 87; activity call: inactive

What is on record for RRAS2 #2?
log2 vehicle/camptothecin viability: -0.138; viability with camptothecin: 84.1; activity call: inactive

What is on record for RRAS2 #3?
log2 vehicle/camptothecin viability: 0.127; viability with camptothecin: 75.5; activity call: inactive

For CD48 #1, what was measured?
log2 vehicle/camptothecin viability: -0.233; viability with camptothecin: 76.9; activity call: inactive

With CD48 #2, what does the deposit list?
log2 vehicle/camptothecin viability: -0.184; viability with camptothecin: 35.8; activity call: inactive

For CD48 #3, what was measured?
log2 vehicle/camptothecin viability: 0.0122; viability with camptothecin: 36.8; activity call: inactive

Which result is listed for CD48 #4?
log2 vehicle/camptothecin viability: -0.414; viability with camptothecin: 67.1; activity call: inactive
